Data: PubChem BioAssay AID330 (DTP/NCI, 2004)
The list does not hold the whole screen: it is rich in T/C values a quarter to a half above the control, in often repeated tests (any T/C) and in doses without a T/C. Other doses and runs of a compound stand elsewhere. T/C is the treated group as % of the vehicle group. Some entries give survivors of the animals treated and no T/C: the source files T/C as zero there, which appears to mark a toxic dose or a test without result, not a measured value. Some doses without a T/C left all or most animals alive at the check, yet need not have been tolerated: the source hardly ever lists a survival T/C far under the control, and the zero likely stands for such cases as well. Counts of survivors are from the toxicity check (mostly the fifth day) where no day follows; animals may have died later. Schedules are NCI's codes, read here as Q, the interval in days (D) or hours (H), X, the number of doses. Some doses were run more than once; their values stand side by side, smallest first. For survival time, this PubChem deposit counts one and a half times the control or more as active, and values a quarter to a half above the control carry no call in these data; other NCI protocols may use other cut-offs. Some T/C values are followed by the survivors on the day toxicity was checked, most often the fifth; without a count, all were alive then.

Tested on: P388 leukemia ip, CD2F1 mice, survival T/C
Assay: NCI In Vivo Anticancer Drug Screen. Data for tumor model P388 Leukemia (intraperitoneal) in CD2F1 (CDF1) mice
Details: T/C endpoint: median survival time, higher T/C = longer survival
[1] = dose: 100.0 mg/kg/injection, schedule: Q01DX005 (ip), vehicle: Klucel (hydroxypropylcellulose) (HPC)
[2] = dose: 200.0 mg/kg/injection, schedule: Q01DX005 (ip), vehicle: Klucel (hydroxypropylcellulose) (HPC)
[3] = dose: 200.0 mg/kg/injection, schedule: Q01DX005 (ip), vehicle: saline with Tween-80
[4] = dose: 200.0 mg/kg/injection, schedule: Q01DX001 (ip), vehicle: Klucel (hydroxypropylcellulose) (HPC)
[5] = dose: 200.0 mg/kg/injection, schedule: Q01DX009 (ip), vehicle: saline with Tween-80
[6] = dose: 240.0 mg/kg/injection, schedule: Q01DX005 (ip), vehicle: saline with Tween-80
[7] = dose: 100.0 mg/kg/injection, schedule: Q01DX009 (ip), vehicle: saline with Tween-80

O=C(O)CC(SCP(=O)(O)O)C(=O)O (stereo not drawn)
survivor count (dose: 120.0 mg/kg/injection, schedule: Q01DX005 (ip), vehicle: saline): 6 of 6

C=C1C(=O)OCC1C(=O)O (stereo not drawn)
T/C (dose: 8.0 mg/kg/injection, schedule: Q01DX009 (ip), vehicle: saline): 130 % of control
T/C (dose: 16.0 mg/kg/injection, schedule: Q01DX009 (ip), vehicle: saline): 130 % of control
T/C (dose: 32.0 mg/kg/injection, schedule: Q01DX009 (ip), vehicle: saline): 125 and 142 % of control
T/C (dose: 64.0 mg/kg/injection, schedule: Q01DX009 (ip), vehicle: saline): 126 % of control
survivor count (dose: 128.0 mg/kg/injection, schedule: Q01DX009 (ip), vehicle: saline): 3 of 6

COc1cc2c[n+](C)c3c4cc(OC)c(OCc5ccccc5)cc4c(OCc4ccccc4)cc3c2cc1OC
survivor count (dose: 50.0 mg/kg/injection, schedule: Q01DX005 (ip), vehicle: Klucel (hydroxypropylcellulose) (HPC)): 4 of 6
survivor count [1]: 2 of 6
survivor count [2]: 0 of 6

CNC(=O)OCc1c(COC(=O)NC)c(-c2ccc(Cl)c(Cl)c2)n2c1SCC2
T/C (dose: 12.5 mg/kg/injection, schedule: Q01DX005 (ip), vehicle: saline with Tween-80): 126 % of control
T/C (dose: 25.0 mg/kg/injection, schedule: Q01DX005 (ip), vehicle: saline with Tween-80): 134 and 137 % of control
survivor count (dose: 100.0 mg/kg/injection, schedule: Q01DX005 (ip), vehicle: saline with Tween-80): 5 of 6 and 6 of 6
survivor count [3]: 3 of 6

COC(=O)CCCCCCCCCCCCCCCCCCCCCCCCCCCCCCCCC(=O)OC
survivor count (dose: 100.0 mg/kg/injection, schedule: Q01DX001 (ip), vehicle: Klucel (hydroxypropylcellulose) (HPC)): 6 of 6
survivor count [4]: 6 of 6
survivor count (dose: 400.0 mg/kg/injection, schedule: Q01DX001 (ip), vehicle: Klucel (hydroxypropylcellulose) (HPC)): 6 of 6

CCCCN(CCCC)CC(O)c1cc(-c2ccc(Cl)cc2)nc(-c2ccc(Cl)cc2)c1 (stereo not drawn)
survivor count [5]: 5 of 6

CC(C)c1nccn1Cc1ccc(Cl)cc1Cl
survivor count [6]: 0 of 6

CC/C(=C(/CC)c1ccc(OCC(=O)N/N=C2/C=C3CCC4C(CCC5(C)C(O)CCC45)C3(C)CC2)cc1)c1ccc(OCC(=O)N/N=C2\C=C3CCC4C(CCC5(C)C(O)CCC45)C3(C)CC2)cc1 (stereo not drawn)
survivor count [4]: 6 of 6

CSc1cccc(NC(=O)Oc2cc(C)c(Cl)c(C)c2Cl)c1
survivor count (dose: 50.0 mg/kg/injection, schedule: Q01DX009 (ip), vehicle: DMSO): 1 of 6
survivor count (dose: 100.0 mg/kg/injection, schedule: Q01DX009 (ip), vehicle: DMSO): 0 of 6
survivor count (dose: 200.0 mg/kg/injection, schedule: Q01DX009 (ip), vehicle: DMSO): 0 of 6

CCOC(=O)N1Cc2cc3ccccc3nc2C1CC(=O)O (stereo not drawn)
survivor count (dose: 100.0 mg/kg/injection, schedule: Q01DX009 (ip), vehicle: Klucel (hydroxypropylcellulose) (HPC)): 5 of 6

CC(C)Nc1nc(Cl)nc(Cl)n1
survivor count [2]: 4 of 5

NC(=NCc1ccccc1)N/N=C\c1ccnc2ccccc12
survivor count (dose: 120.0 mg/kg/injection, schedule: Q01DX005 (ip), vehicle: Klucel (hydroxypropylcellulose) (HPC)): 1 of 6
survivor count (dose: 240.0 mg/kg/injection, schedule: Q01DX005 (ip), vehicle: Klucel (hydroxypropylcellulose) (HPC)): 0 of 6

O=S1(=O)C2C=CCCC1C=C2 (stereo not drawn)
survivor count (dose: 50.0 mg/kg/injection, schedule: Q01DX009 (ip), vehicle: saline): 6 of 6
survivor count (dose: 100.0 mg/kg/injection, schedule: Q01DX009 (ip), vehicle: saline): 4 of 6

O=C1CC(c2ccccc2)Oc2cc(O)cc(O)c21 (stereo not drawn)
survivor count (dose: 50.0 mg/kg/injection, schedule: Q01DX009 (ip), vehicle: Klucel (hydroxypropylcellulose) (HPC)): 6 of 6
survivor count (dose: 100.0 mg/kg/injection, schedule: Q01DX009 (ip), vehicle: other): 3 of 6

O=c1[nH]cnc2c1ccc1[nH]ncc12
survivor count [3]: 1 of 6

CC(=O)OC(C(=O)OC1C[C@]2(O)C(OC(=O)c3ccccc3)C3[C@@]4(OC(C)=O)CO[C@H]4C[C@@H](O)[C@]3(C)C(=O)[C@@H](OC(C)=O)C(=C1C)C2(C)C)C(NC(=O)c1ccccc1)c1ccccc1 (stereo partly drawn)
T/C (dose: 2.5 mg/kg/injection, schedule: Q01DX009 (ip), vehicle: Klucel (hydroxypropylcellulose) (HPC)): 127 % of control
T/C (dose: 5.0 mg/kg/injection, schedule: Q01DX009 (ip), vehicle: Klucel (hydroxypropylcellulose) (HPC)): 127 % of control
T/C (dose: 10.0 mg/kg/injection, schedule: Q01DX009 (ip), vehicle: Klucel (hydroxypropylcellulose) (HPC)): 130 % of control
T/C (dose: 20.0 mg/kg/injection, schedule: Q01DX009 (ip), vehicle: Klucel (hydroxypropylcellulose) (HPC)): 140 % of control

COC(=O)C12OCC34C(CC5C(C)=C(O)C(=O)CC5(C)C3C(O)C1O)OC(=O)C(OC(=O)C=C(C)C)C24 (stereo not drawn)
survivor count (dose: 1.0 mg/kg/injection, schedule: Q01DX009 (ip), vehicle: saline): 6 of 6

O=C=N[Si](c1ccccc1)(c1ccccc1)c1ccccc1
survivor count (dose: 400.0 mg/kg/injection, schedule: Q01DX001 (ip), vehicle: saline with Tween-80): 5 of 6

O=C1/C(=N\O)Cc2cc(Cl)ccc21
survivor count [1]: 3 of 5
survivor count [2]: 3 of 5

C=C1NC(=O)C(N)=C1C(C)=O
T/C [6]: 125 % of control

CCCCCCn1c(=O)cc2n(c1=O)CCC2
survivor count [6]: 0 of 6

CCCOC(=O)/C=C(\F)C(=O)OCCC
survivor count (dose: 100.0 mg/kg/injection, schedule: Q04DX002 (ip), vehicle: saline with Tween-80): 0 of 6
survivor count (dose: 200.0 mg/kg/injection, schedule: Q04DX002 (ip), vehicle: saline with Tween-80): 0 of 6
survivor count (dose: 400.0 mg/kg/injection, schedule: Q04DX002 (ip), vehicle: saline with Tween-80): 0 of 6

CCCCNc1ccc(C(=O)OC2CCN(C)CC2)c(Cl)c1
survivor count (dose: 1.56 mg/kg/injection, schedule: Q01DX009 (ip), vehicle: saline with Tween-80): 5 of 5
T/C (dose: 3.12 mg/kg/injection, schedule: Q01DX009 (ip), vehicle: saline with Tween-80): 99, 111, 113, 118 % of control
T/C (dose: 6.25 mg/kg/injection, schedule: Q01DX009 (ip), vehicle: saline with Tween-80): 94, 111, 119, 120 % of control
survivor count (dose: 50.0 mg/kg/injection, schedule: Q01DX009 (ip), vehicle: saline with Tween-80): 0 of 6
survivor count [7]: 0 of 6
survivor count [5]: 0 of 6

CC([NH-])C(=O)O.O=C(O)CN(CC(=O)O)CC(=O)O.[Co+2]
survivor count (dose: 200.0 mg/kg/injection, schedule: Q01DX009 (ip), vehicle: saline): 3 of 6
survivor count (dose: 300.0 mg/kg/injection, schedule: Q01DX009 (ip), vehicle: saline): 1 of 6

CC(C)=CC(=O)OC1C2C(C)=CC(=O)C(O)C2(C)C2C3(O)OCC24C(CC(=O)OC14)C(C)C3O (stereo not drawn)
T/C (dose: 0.25 mg/kg/injection, schedule: Q01DX009 (ip), vehicle: distilled water + Tween-80): 145 % of control
T/C (dose: 0.5 mg/kg/injection, schedule: Q01DX009 (ip), vehicle: distilled water + Tween-80): 135 % of control
T/C (dose: 1.0 mg/kg/injection, schedule: Q01DX009 (ip), vehicle: distilled water + Tween-80): 148 % of control [5 of 6 alive]
T/C (dose: 2.0 mg/kg/injection, schedule: Q01DX009 (ip), vehicle: distilled water + Tween-80): 145 % of control [4 of 6 alive]
survivor count (dose: 4.0 mg/kg/injection, schedule: Q01DX009 (ip), vehicle: distilled water + Tween-80): 1 of 6 and 4 of 6
survivor count (dose: 8.0 mg/kg/injection, schedule: Q01DX009 (ip), vehicle: distilled water + Tween-80): 0 of 6

CC(C)(C)CC(C)(C)c1ccc(O)cc1
T/C (dose: 100.0 mg/kg/injection, schedule: Q01DX009 (ip), vehicle: saline sonified): 127 % of control
T/C (dose: 400.0 mg/kg/injection, schedule: Q01DX009 (ip), vehicle: saline sonified): 127 % of control

COC(=O)/C=N/NS(=O)(=O)c1cccc(N)c1
survivor count (dose: 400.0 mg/kg/injection, schedule: Q01DX009 (ip), vehicle: water): 2 of 3

Cc1ccc(C[n+]2cc3ccccc3cc2/C=N\O)cc1
survivor count [3]: 0 of 6

COc1cc2c(cc1OC(C)=O)C(=O)C(Br)(Br)CCC2
T/C [7]: 127 % of control
